Test results from PMC9718841.
Results are given in words; binding and its absence hold for the method and conditions named. Binding seen in cells or lysates may run through a third protein. Some results given as binding are weak or reduced against the parent protein; the word gives no strength.

Sequences of proteins named here, by UniProt entry; tags and fusion partners are left off.
UniProt Q61056: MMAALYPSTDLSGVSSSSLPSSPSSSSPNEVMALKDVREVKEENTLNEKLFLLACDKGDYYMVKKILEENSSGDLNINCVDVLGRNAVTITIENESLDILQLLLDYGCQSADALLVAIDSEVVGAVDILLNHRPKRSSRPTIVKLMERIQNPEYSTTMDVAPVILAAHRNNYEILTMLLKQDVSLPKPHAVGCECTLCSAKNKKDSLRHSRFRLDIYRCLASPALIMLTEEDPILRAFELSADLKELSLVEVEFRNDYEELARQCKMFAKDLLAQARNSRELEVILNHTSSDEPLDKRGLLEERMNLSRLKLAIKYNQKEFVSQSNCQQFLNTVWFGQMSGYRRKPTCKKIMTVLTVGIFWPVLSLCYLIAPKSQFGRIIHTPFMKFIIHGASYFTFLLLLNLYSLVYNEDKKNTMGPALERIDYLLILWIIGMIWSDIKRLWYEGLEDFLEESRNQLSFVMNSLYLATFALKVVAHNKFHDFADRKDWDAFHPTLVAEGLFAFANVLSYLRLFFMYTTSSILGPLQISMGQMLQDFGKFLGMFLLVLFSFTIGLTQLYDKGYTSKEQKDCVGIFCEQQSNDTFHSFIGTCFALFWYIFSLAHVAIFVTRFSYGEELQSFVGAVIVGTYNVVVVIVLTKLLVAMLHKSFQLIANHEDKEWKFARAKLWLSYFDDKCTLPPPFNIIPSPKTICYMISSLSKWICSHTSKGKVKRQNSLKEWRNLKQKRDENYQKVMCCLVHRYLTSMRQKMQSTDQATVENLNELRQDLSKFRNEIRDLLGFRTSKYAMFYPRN
UniProt P11881: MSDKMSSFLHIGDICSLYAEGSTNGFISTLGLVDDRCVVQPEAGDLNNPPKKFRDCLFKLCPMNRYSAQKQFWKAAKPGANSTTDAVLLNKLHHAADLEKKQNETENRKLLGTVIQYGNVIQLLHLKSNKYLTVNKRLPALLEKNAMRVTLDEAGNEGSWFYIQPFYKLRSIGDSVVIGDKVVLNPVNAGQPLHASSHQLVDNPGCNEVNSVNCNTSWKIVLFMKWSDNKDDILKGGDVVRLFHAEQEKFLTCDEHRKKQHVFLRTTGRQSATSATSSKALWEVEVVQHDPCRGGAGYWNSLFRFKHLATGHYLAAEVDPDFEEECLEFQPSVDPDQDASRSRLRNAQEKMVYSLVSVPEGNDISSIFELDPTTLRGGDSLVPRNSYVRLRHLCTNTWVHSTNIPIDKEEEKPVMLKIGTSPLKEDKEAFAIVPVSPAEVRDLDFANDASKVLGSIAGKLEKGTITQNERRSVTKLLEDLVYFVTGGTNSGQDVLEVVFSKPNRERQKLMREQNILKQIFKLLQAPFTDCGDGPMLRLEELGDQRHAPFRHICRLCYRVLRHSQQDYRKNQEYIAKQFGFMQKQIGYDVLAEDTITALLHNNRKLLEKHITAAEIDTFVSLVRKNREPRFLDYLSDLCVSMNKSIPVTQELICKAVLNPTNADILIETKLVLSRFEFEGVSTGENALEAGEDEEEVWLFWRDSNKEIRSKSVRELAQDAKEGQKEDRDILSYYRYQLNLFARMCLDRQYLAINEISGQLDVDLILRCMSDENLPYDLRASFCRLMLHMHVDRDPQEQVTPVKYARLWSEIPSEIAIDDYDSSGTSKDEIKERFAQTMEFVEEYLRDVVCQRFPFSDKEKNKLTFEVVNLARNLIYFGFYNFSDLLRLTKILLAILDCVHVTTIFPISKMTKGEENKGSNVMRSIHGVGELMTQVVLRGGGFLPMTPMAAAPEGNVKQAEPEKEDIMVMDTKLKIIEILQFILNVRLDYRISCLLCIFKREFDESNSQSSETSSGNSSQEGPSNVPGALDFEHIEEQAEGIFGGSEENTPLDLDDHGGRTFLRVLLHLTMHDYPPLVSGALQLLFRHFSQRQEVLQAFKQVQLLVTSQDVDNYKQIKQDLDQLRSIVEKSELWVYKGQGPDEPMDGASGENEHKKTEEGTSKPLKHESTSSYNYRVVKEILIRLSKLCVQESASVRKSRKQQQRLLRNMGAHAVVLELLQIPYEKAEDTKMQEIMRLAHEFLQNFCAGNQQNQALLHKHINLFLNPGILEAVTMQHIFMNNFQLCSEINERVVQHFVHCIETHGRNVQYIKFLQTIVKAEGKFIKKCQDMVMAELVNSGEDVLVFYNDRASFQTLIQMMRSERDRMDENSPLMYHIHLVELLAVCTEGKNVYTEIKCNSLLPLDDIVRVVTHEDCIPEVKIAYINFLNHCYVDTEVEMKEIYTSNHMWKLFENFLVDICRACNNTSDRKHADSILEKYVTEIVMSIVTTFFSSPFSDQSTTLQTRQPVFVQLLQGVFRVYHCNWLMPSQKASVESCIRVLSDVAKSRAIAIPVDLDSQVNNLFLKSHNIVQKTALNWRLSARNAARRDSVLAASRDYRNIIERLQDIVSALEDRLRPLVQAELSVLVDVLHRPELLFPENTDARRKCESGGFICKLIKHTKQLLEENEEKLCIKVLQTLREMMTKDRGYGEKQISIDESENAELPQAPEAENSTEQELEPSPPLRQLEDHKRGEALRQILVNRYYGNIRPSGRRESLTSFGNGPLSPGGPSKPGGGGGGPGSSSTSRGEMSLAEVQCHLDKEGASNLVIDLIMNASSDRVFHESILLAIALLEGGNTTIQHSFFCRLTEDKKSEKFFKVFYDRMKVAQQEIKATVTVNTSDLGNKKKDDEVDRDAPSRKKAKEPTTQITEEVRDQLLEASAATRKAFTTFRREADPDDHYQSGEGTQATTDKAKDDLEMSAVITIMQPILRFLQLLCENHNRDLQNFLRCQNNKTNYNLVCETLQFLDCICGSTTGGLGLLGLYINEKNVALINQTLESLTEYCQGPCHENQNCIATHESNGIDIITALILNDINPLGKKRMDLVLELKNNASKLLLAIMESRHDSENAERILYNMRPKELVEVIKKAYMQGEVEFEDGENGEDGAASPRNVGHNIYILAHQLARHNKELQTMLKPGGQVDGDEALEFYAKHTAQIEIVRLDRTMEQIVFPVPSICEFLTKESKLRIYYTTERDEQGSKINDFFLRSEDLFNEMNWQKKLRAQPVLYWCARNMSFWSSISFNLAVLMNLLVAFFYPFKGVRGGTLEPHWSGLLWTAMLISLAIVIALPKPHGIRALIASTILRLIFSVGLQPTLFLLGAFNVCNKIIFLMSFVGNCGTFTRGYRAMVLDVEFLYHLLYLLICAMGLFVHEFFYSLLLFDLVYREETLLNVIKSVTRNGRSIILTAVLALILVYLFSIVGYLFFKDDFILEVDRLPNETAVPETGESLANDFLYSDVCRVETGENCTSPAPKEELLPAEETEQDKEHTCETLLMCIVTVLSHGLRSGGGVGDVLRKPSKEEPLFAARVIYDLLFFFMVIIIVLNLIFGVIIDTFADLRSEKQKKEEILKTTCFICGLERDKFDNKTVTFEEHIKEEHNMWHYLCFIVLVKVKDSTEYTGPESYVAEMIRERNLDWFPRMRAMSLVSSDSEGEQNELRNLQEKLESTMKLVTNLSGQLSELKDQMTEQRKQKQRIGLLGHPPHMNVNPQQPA

Assays:
[1] = biological target: T1, transient receptor potential canonical channel 6 (endogenous, mouse) (mouse (endogenous in heart and cardiomyocytes)) (UniProt Q61143); assay: co-IP; endogenous proteins in mouse heart (ventricle) lysates, 1000 μg total protein, antibody on Protein A/G sepharose, 4 °C overnight, western blot; WT, Trpc1−/− and Trpc6−/− mice, 4 h after LPS or vehicle
T1 sequence: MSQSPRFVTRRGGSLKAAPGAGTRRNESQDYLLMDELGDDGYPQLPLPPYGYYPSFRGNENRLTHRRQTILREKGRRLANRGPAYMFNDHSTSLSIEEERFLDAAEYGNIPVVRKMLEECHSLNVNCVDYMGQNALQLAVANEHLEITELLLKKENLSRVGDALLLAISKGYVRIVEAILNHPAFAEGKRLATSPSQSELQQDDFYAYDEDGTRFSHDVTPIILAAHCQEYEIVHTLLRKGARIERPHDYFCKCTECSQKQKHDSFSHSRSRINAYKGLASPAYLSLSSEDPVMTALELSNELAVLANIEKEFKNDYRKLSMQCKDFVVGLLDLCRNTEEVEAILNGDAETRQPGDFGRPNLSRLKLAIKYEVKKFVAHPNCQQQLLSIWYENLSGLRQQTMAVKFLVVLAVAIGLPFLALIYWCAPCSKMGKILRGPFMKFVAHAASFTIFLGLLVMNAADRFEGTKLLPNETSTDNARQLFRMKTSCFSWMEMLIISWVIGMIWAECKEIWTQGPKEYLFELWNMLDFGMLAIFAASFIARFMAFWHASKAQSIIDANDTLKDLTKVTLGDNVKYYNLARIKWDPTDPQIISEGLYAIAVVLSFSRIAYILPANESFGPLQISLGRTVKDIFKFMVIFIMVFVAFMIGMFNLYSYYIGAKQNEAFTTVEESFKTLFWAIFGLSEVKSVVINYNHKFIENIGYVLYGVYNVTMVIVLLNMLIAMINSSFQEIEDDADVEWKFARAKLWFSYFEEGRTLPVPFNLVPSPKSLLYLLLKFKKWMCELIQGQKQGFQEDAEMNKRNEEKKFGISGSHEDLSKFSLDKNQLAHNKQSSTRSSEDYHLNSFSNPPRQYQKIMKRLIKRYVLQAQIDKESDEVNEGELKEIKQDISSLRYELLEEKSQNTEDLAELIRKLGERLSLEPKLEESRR

[2] = biological target: transient receptor potential canonical channel 1 (endogenous, mouse) (mouse (endogenous in heart and cardiomyocytes)) (UniProt Q61056); assay: as above
[3] = biological target: T1, transient receptor potential canonical channel 6 (endogenous, mouse) (mouse (endogenous in heart and cardiomyocytes)); assay: proximity ligation; Duolink PLA in fixed neonatal mouse cardiomyocytes, with or without LPS; WT cells for TRPC1/TRPC6 with IP3R1, Trpc1 and Trpc6 knockout cells for CaM with TLR4 or IP3R1
[4] = biological target: transient receptor potential canonical channel 1 (endogenous, mouse) (mouse (endogenous in heart and cardiomyocytes)) (UniProt Q61056); assay: as above
[5] = biological target: transient receptor potential canonical channel 1 (endogenous, mouse) (mouse (endogenous in heart and cardiomyocytes)) (UniProt Q61056); assay: co-IP; endogenous proteins in lysates of LPS-stimulated neonatal mouse cardiomyocytes; pretreatments: CALP1 (20 μM), SKF96365 (concentration series)
[6] = biological target: T1, transient receptor potential canonical channel 6 (endogenous, mouse) (mouse (endogenous in heart and cardiomyocytes)); assay: co-IP; endogenous TRPC1 and TRPC6 in cardiomyocytes, with or without LPS (Supplementary Fig. 10a)

binding [1]	binding [2]	binding [3]	binding [4]	binding [5]	binding [6]	Substance
binds	binds	binds	binds	binds		IP3 receptor subtype 1 (endogenous, mouse) (from UniProt P11881 1-2749)
					no binding	transient receptor potential canonical channel 1 (endogenous, mouse) (from UniProt Q61056 1-793)
